Substitutions are numbered along the chain they refer to. No constants are given. Whether binding was seen depends on the method and setting. Binding seen in cells or lysates may run through a third protein. Some results given as binding are weak or reduced against the parent protein; the word gives no strength. Tags and fused reporters may be left off the sequences shown.
Key:
[1] = molecular target: T1, FLAG-tagged FOXL2:C134W (human) (UniProt P58012); assay: co-IP; COV434 cells 24hr after co-transfection; lysis buffer with 1% Igepal CA-630; FLAG-tagged FOXL2 precipitated with Anti-FLAG M2 Affinity Gel, beads washed three times with 20 volumes of lysis buffer; blots for SF-1 (anti-serum) and LRH-1 (ab18293); SF-1 and LRH-1 expressed alone or combined
T1 sequence: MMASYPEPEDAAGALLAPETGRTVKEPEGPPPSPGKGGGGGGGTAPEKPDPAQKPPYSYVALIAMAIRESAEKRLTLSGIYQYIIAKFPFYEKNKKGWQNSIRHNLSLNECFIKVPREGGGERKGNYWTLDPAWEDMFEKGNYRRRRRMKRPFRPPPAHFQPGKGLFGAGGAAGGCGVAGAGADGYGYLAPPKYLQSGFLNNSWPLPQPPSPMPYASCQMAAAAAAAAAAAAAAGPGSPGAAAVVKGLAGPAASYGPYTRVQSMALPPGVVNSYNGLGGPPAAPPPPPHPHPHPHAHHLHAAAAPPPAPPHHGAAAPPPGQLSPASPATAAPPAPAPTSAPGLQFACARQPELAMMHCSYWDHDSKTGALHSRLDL

Protein sequences, listed by entry. Tags and fused reporters are not part of them.
UniProt Q13285: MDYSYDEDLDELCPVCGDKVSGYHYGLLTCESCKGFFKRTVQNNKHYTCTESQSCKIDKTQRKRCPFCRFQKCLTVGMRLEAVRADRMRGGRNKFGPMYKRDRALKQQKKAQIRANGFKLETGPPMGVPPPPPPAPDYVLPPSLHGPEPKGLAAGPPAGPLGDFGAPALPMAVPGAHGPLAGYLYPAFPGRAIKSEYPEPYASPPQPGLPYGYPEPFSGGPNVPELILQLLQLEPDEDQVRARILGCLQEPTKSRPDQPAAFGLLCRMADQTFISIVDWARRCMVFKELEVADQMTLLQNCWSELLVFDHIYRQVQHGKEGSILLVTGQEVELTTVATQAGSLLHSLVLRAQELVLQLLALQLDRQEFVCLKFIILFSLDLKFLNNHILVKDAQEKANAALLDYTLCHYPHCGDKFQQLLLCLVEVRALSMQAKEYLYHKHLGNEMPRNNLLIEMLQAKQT
UniProt O00482: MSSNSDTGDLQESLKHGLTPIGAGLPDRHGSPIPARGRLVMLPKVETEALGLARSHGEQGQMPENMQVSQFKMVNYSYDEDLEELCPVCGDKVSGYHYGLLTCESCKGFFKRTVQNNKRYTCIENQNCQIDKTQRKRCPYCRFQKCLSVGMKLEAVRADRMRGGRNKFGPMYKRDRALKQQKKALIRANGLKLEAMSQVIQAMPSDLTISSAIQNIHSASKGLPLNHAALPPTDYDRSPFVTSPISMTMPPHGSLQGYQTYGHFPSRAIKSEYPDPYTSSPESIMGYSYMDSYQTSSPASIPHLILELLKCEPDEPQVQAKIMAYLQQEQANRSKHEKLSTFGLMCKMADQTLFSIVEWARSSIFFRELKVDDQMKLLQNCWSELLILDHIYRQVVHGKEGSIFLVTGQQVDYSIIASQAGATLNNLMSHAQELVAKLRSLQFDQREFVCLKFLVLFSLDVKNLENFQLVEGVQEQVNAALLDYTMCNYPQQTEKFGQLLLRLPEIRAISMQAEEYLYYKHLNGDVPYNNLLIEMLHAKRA

[2] = molecular target: T2, FLAG-tagged FOXL2:wt (human) (UniProt P58012); assay: as above
T2 sequence: T1 sequence with W134C

Substance | binding [1] | binding [2]
steroidogenic factor 1 (SF-1) (from UniProt Q13285 1-461) | binds | binds
liver receptor homologue 1 (LRH-1) (from UniProt O00482 1-541) | binds | binds
